In all, about 52,000 sequences went through this assay and about 210 (0.4%) were called active.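 How the source made its calls: active means gene whose silencing raises cell survival under the drug, median off-target-corrected z-score across its silencing RNAs 2 or more; inactive means the rest.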 The list shows a part of the results.

The assay is described as follows: Resistance to Poly (ADP-Ribose) Polymerase inhibitor: Gene Identification via Genome-wide siRNA Screen. As to conditions: mouse BRCA2 R2336H ES cells, olaparib, CellTiter-Glo viability; hits give high values. The method in brief:
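Mouse BRCA2 R2336H ES cells were reverse-transfected with siRNA (20 nM final), treated at 48 h with 500 nM olaparib, and read by CellTiter-Glo after 72 h. Scores: MAD-based z per siRNA, median per gene, seed off-target correction.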
Turning to CGGAUUGUAAAGAACUGCATT against Sfrp1, the z-score was inactive: -0.06.
For “GGAUUUGAGCCUUGUUCCATT against 1200016C12Rik”, the z-score is inactive: -1.68.
For the sequence GCUUUGUUUUAGGACCUUUTT against Rdh1, the z-score was inactive: -1.13.
“GCAACUCAACCUCAACCAUTT against 1810049O03Rik”: the z-score is inactive: 0.466.
Turning to GGAAUGUGGAUAAAAACGATT against Ncam1, the z-score is inactive: 0.679.
For the sequence “GCAUCUCUCUAAUAGCCUUTT against D13Wsu177e”, the z-score is inactive: -0.341.
The same measure for “GGCUUCAGACAAGCAAUAATT against 1110008K04Rik”: inactive: -0.972.
The same measure for GGAAGAGAGUCUGCCUGGUTT against BC016076: inactive: -1.92; for CCCAGACCAAUUCAUCUUATT against Ifngr2: inactive: -0.0596.
On to GGACUACAUGUUUGAAACCTT against Ugt2a1, for which the z-score was inactive: -1.25.
With “GCGGGCAAUGCCUUAAAAGTT against D16Ertd607e”, the z-score is inactive: 0.194.
As for GCGCAUGAGUGCAAGGAUUTT against Prdm16, the z-score is inactive: 1.32.
For the sequence GGAUGUUGAACAAAAGAAGTT against Abce1, the z-score is inactive: -0.372.
Take CCCAUUCCUAGGAUUAUCGTT against Arf6: the z-score is inactive: 0.238.
On to GGCAUGUGGUUGAAGGCCUTT against Fank1, for which the z-score is inactive: 1.47.
Regarding GGUCUGAAAGGCAUGAUACTT against Adam4, the z-score is inactive: -0.168.
The same measure for GGAAAGAUUUCGAACAAUCTT against Rab1: inactive: -0.242; for GGAACGUAUGAAGUUAAACTT against Cd80: inactive: 1.58.
For GCUGGUUUUCAUCUCUAAATT against Slc5a5, the z-score is inactive: 0.566.
The same measure for GGGAUUCAUCACUGAAAAGTT against Mell1: inactive: -0.918; for GGAUUACCACAGAGCUUCATT against Rhox3: inactive: -1.49.
Consider GGAUGAAAUCUCCAAGAAATT against Btg3, for which the z-score is inactive: -0.101.
Regarding GCCAAGAGGUUAAAAGACUTT against Rabep2, the z-score was inactive: 0.286.
Take GCUGAUCAAUAACUAUGAUTT against Ezh1: the z-score is inactive: 0.925.
Take GGAUUGGGUUACAUACAGATT against Abpe: the z-score is inactive: 0.428.
On to GGUGUCCAUCUACUAUGGCTT against Prrxl1, for which the z-score was inactive: 0.2.
As for “GGGCAUUUGUGAAGUAUAUTT against 4732429I09Rik”, the z-score was inactive: -2.69.
As to “CGUCUGUCUGUAUGAAAUUTT against 2810439F02Rik”, the z-score was inactive: -1.11.
As to “GGAGGAUCAAAAACUUGUUTT against 4930444A02Rik”, the z-score was inactive: 1.7.

The values are drawn from PubChem BioAssay AID1347423 (Functional Genomics Laboratory (NCATS/FGL), 2020).
